{
  "source": "PubChem BioAssay AID687005",
  "about": "(Broad Institute, 2013)",
  "note": "This list was built around the results that the source calls inconclusive (neither active nor inactive); the mix of calls is not that of the screen. Activity calls are given as the source filed them.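 How the source made its calls: active means Compounds that reduce signal, with fitted half-maximal dose at or under twice the top valid tested dose; inconclusive means Poor fit, or flat curve losing 30 to 70% of signal; inactive means Potency past limit, flat within 30%, or opposite direction.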",
  "data": [
    {"assay": "viability loss in HEK293T cells – cell-based, ATP luminescence, cherry-pick samples, cytotoxicity control, dose response (AID 687005)", "details": "ATP luminescence (CellTiter-Glo), 48 h; at 26 µM (top of the series) unless noted", "values": [
      {"smiles": "CCCNC(=O)Nc1ccc2c(c1)C(=O)N(C)C[C@H](OC)[C@@H](C)CN(C(=O)CC)[C@@H](C)CO2", "activity change, negative = cytotoxicity": "inconclusive: -31.1%"},
      {"smiles": "COc1cccc(S(=O)(=O)Nc2ccc3c(c2)OC[C@H](C)NC[C@@H](C)[C@H](OC)CN(C)C3=O)c1", "activity change, negative = cytotoxicity": "inactive: -4.71%"},
      {"smiles": "CO[C@H]1CN(C)C(=O)c2cc(NC(=O)Nc3cccc(F)c3)ccc2OC[C@H](C)N(C)C[C@H]1C", "activity change, negative = cytotoxicity": "inconclusive: -30.6%"},
      {"smiles": "C[C@H](CO)N1C[C@H](C)[C@H](CN(C)Cc2ccncc2)Oc2ccc(NC(=O)CCC(F)(F)F)cc2C1=O", "activity change, negative = cytotoxicity": "inconclusive: -11.6%"},
      {"smiles": "C[C@@H]1CN([C@H](C)CO)C(=O)c2ccccc2-c2ccccc2CO[C@H]1CN(C)S(=O)(=O)c1cccc(C#N)c1", "activity change, negative = cytotoxicity": "inconclusive: -61.7%"},
      {"smiles": "CN(C)C(=O)c1ccc(-c2ccc([C@H]3[C@H]4CN(CCC(F)(F)F)CCCCN4[C@H]3CO)cc2)cc1", "activity change, negative = cytotoxicity": "inconclusive: -18.8%"},
      {"smiles": "O=C(NCCN1CCCCC1)[C@H]1N[C@H]2c3ccc(-c4ccncc4)c(=O)n3C[C@H]2[C@@H]1CO", "activity change, negative = cytotoxicity": "inconclusive: -28.9%"},
      {"smiles": "Cc1cc(OCC(=O)N(C)Cc2ccccc2)cc(C)c1Cl", "activity change, negative = cytotoxicity": "inconclusive: -42.8%"},
      {"smiles": "CC(C)NC(=O)Nc1ccc2c(c1)CC(=O)N([C@H](C)CO)C[C@@H](C)[C@H](CN(C)Cc1ccc3c(c1)OCO3)O2", "activity change, negative = cytotoxicity": "inconclusive: -19.8% [at 23.5 µM]"},
      {"smiles": "C[C@@H]1CN([C@@H](C)CO)C(=O)c2cc(NS(=O)(=O)c3cn(C)cn3)ccc2O[C@@H]1CN(C)C(=O)Nc1cccc2ccccc12", "activity change, negative = cytotoxicity": "inactive: -15.2%"},
      {"smiles": "C/C=C/c1ccc([C@@H]2[C@@H](CNC(=O)C3CCC3)N(C(=O)NCCC)[C@H]2CO)cc1", "activity change, negative = cytotoxicity": "inconclusive: -35.4%"},
      {"smiles": "CN1c2ccc(-c3ccc(F)cc3)cc2[C@@H]2[C@@H](CCN2C(=O)C2CCOCC2)[C@@H]1CO", "activity change, negative = cytotoxicity": "inconclusive: -78.8%"},
      {"smiles": "Cc1noc(C)c1S(=O)(=O)Nc1ccc2c(c1)C(=O)N([C@@H](C)CO)C[C@@H](C)[C@H](CN(C)Cc1ccc3c(c1)OCO3)OCCCC[C@H](C)O2", "activity change, negative = cytotoxicity": "inconclusive: -38.5%"},
      {"smiles": "C[C@H](CO)N1C[C@H](C)[C@@H](CN(C)C(=O)c2cccc(F)c2)Oc2cc(-c3cncnc3)ccc2S1(=O)=O", "activity change, negative = cytotoxicity": "inactive: -22.6%"},
      {"smiles": "C[C@H](CO)N1C[C@H](C)[C@H](CN(C)C(=O)Nc2ccc3c(c2)OCO3)Oc2ncc(C#CC(C)(C)O)cc2C1=O", "activity change, negative = cytotoxicity": "inactive: -10.7% [at 23.5 µM]"},
      {"smiles": "CNC[C@@H]1Oc2cc(Br)ccc2S(=O)(=O)N([C@H](C)CO)C[C@H]1C", "activity change, negative = cytotoxicity": "inactive: 28.3%"},
      {"smiles": "COC(=O)C1=C(C)N(Cc2ccc(Br)cc2)C(=S)NC1c1ccc(F)cc1", "note": "(stereo not given)", "activity change, negative = cytotoxicity": "inconclusive: -43.6% [at 23.5 µM]"},
      {"smiles": "C[C@@H]1CCCCO[C@H](CN(C)Cc2ccncc2)[C@@H](C)CN([C@H](C)CO)C(=O)c2cc(N(C)C)ccc2O1", "activity change, negative = cytotoxicity": "inactive: -3.32%"},
      {"smiles": "Cc1noc(C)c1S(=O)(=O)Nc1ccc2c(c1)C(=O)N([C@@H](C)CO)C[C@H](C)[C@@H](CN(C)Cc1ccc3c(c1)OCO3)OCCCC[C@@H](C)O2", "activity change, negative = cytotoxicity": "inactive: 45.4%"},
      {"smiles": "O=C([C@H]1[C@H](CO)[C@H]2Cn3c(cccc3=O)[C@H]2N1CCC(F)(F)F)N1CCCCC1", "activity change, negative = cytotoxicity": "inconclusive: -5.86%"},
      {"smiles": "O=C(NC[C@H]1[C@H](c2ccccc2)[C@H](CO)N1C(=O)Cc1cccnc1)C1CCC1", "activity change, negative = cytotoxicity": "inconclusive: -42.7%"},
      {"smiles": "Cc1noc(C)c1S(=O)(=O)Nc1ccc2c(c1)CC(=O)N([C@@H](C)CO)C[C@@H](C)[C@@H](CN(C)S(=O)(=O)c1cccs1)O2", "activity change, negative = cytotoxicity": "inactive: -16.9% [at 23.5 µM]"},
      {"smiles": "COC(=O)C1=C(C)N(Cc2ccc(Br)cc2)C(=S)NC1c1cccc(Cl)c1", "note": "(stereo not given)", "activity change, negative = cytotoxicity": "inconclusive: -73.1% [at 23.5 µM]"},
      {"smiles": "Cc1cccc(C)c1NC(=O)C1NC(=O)CC1c1ccccc1", "note": "(stereo not given)", "activity change, negative = cytotoxicity": "inactive: 0.826% [at 42 µM]"},
      {"smiles": "O=C(Nc1ccc2ncccc2c1)c1ccccc1", "activity change, negative = cytotoxicity": "inconclusive: -60.1%"},
      {"smiles": "COc1cc2c(C(=O)N(C)c3cc(Cl)ccc3OC)cn(C)c(=O)c2cc1OC", "activity change, negative = cytotoxicity": "inactive: -3.77%"},
      {"smiles": "O=C(NC[C@@H]1[C@@H](c2ccccc2)[C@H](CO)N1C(=O)C1CCC1)NC1CCCC1", "activity change, negative = cytotoxicity": "inactive: -9.04% [at 23.5 µM]"},
      {"smiles": "O=C(Nc1ccccc1N1CCOCC1)c1cccc([N+](=O)[O-])c1", "activity change, negative = cytotoxicity": "inconclusive: -58.3%"},
      {"smiles": "CN1C(=O)N[C@@H]2c3ccccc3O[C@@]1(C)[C@@H]2COC(=O)c1ccccc1", "activity change, negative = cytotoxicity": "inactive: -8.64%"},
      {"smiles": "O=C(NC(=S)Nc1ccccc1N1CCOCC1)c1cccc([N+](=O)[O-])c1", "activity change, negative = cytotoxicity": "inactive: -5.81%"},
      {"smiles": "COCC#Cc1ccc2c(c1)O[C@H](CN(C)S(=O)(=O)c1ccc(OC)cc1)[C@H](C)CN([C@H](C)CO)S2(=O)=O", "activity change, negative = cytotoxicity": "inconclusive: -22.3%"},
      {"smiles": "CCCC(=O)Nc1ccc2c(c1)C(=O)N(C)C[C@H](OC)[C@@H](C)CN(C(=O)c1cccnc1)[C@H](C)CO2", "activity change, negative = cytotoxicity": "inconclusive: -33.5%"},
      {"smiles": "O=C(C[C@@H]1C=C[C@@H](NC(=O)C2CCC2)[C@H](CO)O1)NC1CCC1", "activity change, negative = cytotoxicity": "inconclusive: -15.5%"},
      {"smiles": "O=C(c1cccc(F)c1)N1C[C@@H]2[C@H](c3ccccc31)[C@H](CO)N2Cc1cocn1", "activity change, negative = cytotoxicity": "inconclusive: -36.6%"},
      {"smiles": "CCCNC(=O)Nc1ccc2c(c1)C(=O)N(C)C[C@H](OC)[C@@H](C)CN(Cc1cccnc1)[C@H](C)CO2", "activity change, negative = cytotoxicity": "inconclusive: -11.5% [at 23.5 µM]"}
    ]}
  ]
}
